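Methionyl-tRNA synthetase (putative), Leishmania donovani (UniProt E9BF75). Primary screen of methionyl-tRNA synthetase; the read-out is not stated. The test concentration is not given. The values are filed as inhibition. Size under these conditions: about 68,000 compounds, about 24 of them at 50% or above in at least one test.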

By UniProt entry, the sequences of proteins in these tests, tags left out.
UniProt E9BF75, entry or part of it: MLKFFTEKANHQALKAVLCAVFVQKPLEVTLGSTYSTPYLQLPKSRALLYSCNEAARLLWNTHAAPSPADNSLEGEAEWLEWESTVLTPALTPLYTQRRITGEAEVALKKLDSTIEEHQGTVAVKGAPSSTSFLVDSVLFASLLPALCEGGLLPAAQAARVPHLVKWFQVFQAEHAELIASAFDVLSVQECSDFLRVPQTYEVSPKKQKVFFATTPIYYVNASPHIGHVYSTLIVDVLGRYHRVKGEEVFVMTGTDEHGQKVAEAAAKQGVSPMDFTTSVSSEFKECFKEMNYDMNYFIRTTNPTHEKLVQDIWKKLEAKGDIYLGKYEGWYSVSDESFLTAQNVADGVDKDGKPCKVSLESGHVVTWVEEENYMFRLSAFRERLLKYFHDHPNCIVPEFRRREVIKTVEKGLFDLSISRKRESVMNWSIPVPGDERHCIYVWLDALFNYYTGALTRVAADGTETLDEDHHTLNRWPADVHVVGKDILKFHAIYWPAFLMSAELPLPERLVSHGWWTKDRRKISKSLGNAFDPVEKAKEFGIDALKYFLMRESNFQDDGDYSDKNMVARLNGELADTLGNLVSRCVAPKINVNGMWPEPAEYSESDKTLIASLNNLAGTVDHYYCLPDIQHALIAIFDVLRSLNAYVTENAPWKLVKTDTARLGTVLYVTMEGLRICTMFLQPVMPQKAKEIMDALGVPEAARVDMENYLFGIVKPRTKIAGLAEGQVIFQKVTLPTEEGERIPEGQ

All values are in %.
How 0% and 100% were set is not recorded. Most values in the screen are low, and negative values occur.
This is an unselected part of the compounds tested.

O=C(CC1CN(Cc2ccccc2)CCO1)NC1CCSCC1 (stereo unspecified) gave 10.08%. Cc1ncsc1C(=O)NC1CCN(Cc2cccnc2)CC1 gave 6.073%. CC(C)NC(=O)N(C)C(c1cccc(F)c1)c1ccccn1 (stereo unspecified) read 15.34%. Result for CC(C)n1ccnc1C1CCN(C(=O)c2ccc(SCCO)cc2)CC1 was 11.37%. COC(=O)c1ccc(OC)c(Cn2cc(Br)cn2)c1 gave 1.144%.

For COCC1CC2(CCN(CC3CC3)CC2)CN1Cc1ccccn1 (stereo unspecified) the result was 17.66%. Result for CC(C)(C)c1noc(CN2CCCc3cc(OC(F)(F)F)ccc32)n1 was 9.677%. Result for Cc1cccc(C(=O)N2CCCC[C@]3(C)NC(=O)CCC[C@H]23)n1 was 12.86%. For COc1c(CNC2(c3ccc(Cl)cc3)CCC2)c(C)nn1C the result was 8.333%. Cc1noc(C)c1CCNc1nccc(CCC(F)(F)F)n1 gave 10.27%.

With CCN(Cc1nccn1C)C(=O)c1ccc(NCCc2c[nH]cn2)nc1 the screen gave 9.045%. With COc1cccc2c1OCC(C(=O)N1CCN(C3CCSCC3)CC1)C2 (stereo unspecified) the screen gave 13.38%. With COc1ccc2c(c1)CC(NCCCn1nc(C)nc1C)CC2 (stereo unspecified) the screen gave 11.23%. CC(Nc1ccc(F)cc1)c1nnnn1-c1ccccc1 (stereo unspecified) gave 17.96%. CCS(=O)(=O)N1CCC(NC(=O)c2cc3ccccc3cc2O)CC1 read 19.7%.

Cc1cc(C2CCCN2C(=O)c2cc3c(s2)CCC3)no1 (stereo unspecified) gave 2.793%. COc1ccccc1-c1noc(CCC(=O)NC(C)Cn2cccn2)n1 (stereo unspecified) read 0.9804%. For CN(C)c1cc(N(C)Cc2cc(C(C)(C)C)n[nH]2)ncn1 the result was 13.6%. CCN(CC)c1ccc(-c2ccc(C)c(S(N)(=O)=O)c2)nn1 read -2.801%. For CC[C@@H](c1ccccc1)n1c(CN)n[nH]c1=O the result was 16.67%.

CCOCCn1c(=O)[nH]c2cc(C(=O)N(C)Cc3cc(C)[nH]n3)ccc21 read 8.877%. With CC(NC(=O)Cc1ccccc1F)C(=O)N1CCS(=O)(=O)CC1 (stereo unspecified) the screen gave 17.39%. Result for CCN(CC)C(=O)CCNC(=O)Cc1nc(-c2ccco2)oc1C was 7.805%. Result for Cc1cc(N2CCCC(O)(CN(C)C)C2)c2cc3c(cc2n1)OCO3 (stereo unspecified) was 7.645%. Result for COc1ccc(CNc2ncc(-c3cc(C)no3)c(C(C)C)n2)cc1 was 15.62%.

With O=C([C@@H]1COC[C@H]2CN(CC3CCCC3)C[C@H]21)N1CCOCC1 the screen gave 14.86%. For CCc1ncc(CN(C)C2CCN(C(C)C)CC2)cn1 the result was 8.861%. For CCC1(CO)CCCN(c2ncccc2C#N)C1 (stereo unspecified) the result was 8.333%. CNc1cncc(C2CCCN2S(=O)(=O)c2ccccc2)n1 (stereo unspecified) read 13.5%. CS(=O)(=O)N1CCc2[nH]nc(Cc3cccs3)c2C1 gave 18.38%.

For COCCN1CCC(CN(CC2CCCO2)C(=O)COC)CC1 (stereo unspecified) the result was 8.85%. Result for COCC1CC2(CCN(C(=O)c3ccco3)CC2)CN1C(C)C (stereo unspecified) was 10.38%. O=c1[nH]nc2c(N3CCC(NC4CCOCC4)CC3)nccn12 gave 6.857%. With COc1ccccc1OC1CN(C(=O)c2c(C)nc3ccc(C)cn23)C1 the screen gave 7.843%. With Cn1cc(CN2CCC3(CC2)COC(COc2ccccn2)C3)cn1 (stereo unspecified) the screen gave 21.04%.

Result for COc1cccc(C(=O)N2CCc3nc(C4CCCN4)ncc3C2)c1 (stereo unspecified) was 25.08%. c1ccc(OCCN2CCC(n3cncn3)CC2)cc1 read 13.4%. NC(=O)c1nc(COc2ccc3c(c2)OCO3)no1 gave 6.224%. Cc1cnc(CNC(=O)[C@@]23CCO[C@@H]2CCN(C2CCCC2)C3)cn1 gave 10.34%. With O=S(=O)(CC1CCCCO1)Nc1cc(F)ccc1-n1cccn1 (stereo unspecified) the screen gave 4.57%.

For CC(=O)Nc1ccc(Oc2cc(C)nc(C3CCNCC3)c2)cc1 the result was 12.21%. Cc1cc2nc(CN(C)c3ccc(Cl)cc3)cc(=O)n2o1 read 20.6%. Result for NS(=O)(=O)CCNC(=O)C1(c2ccc(Br)cc2)CC1 was 12.6%. Result for CNS(=O)(=O)c1ccc(C(=O)N2CCCC(n3cccn3)C2)cc1 (stereo unspecified) was 10.2%. With COc1ccc(C2(C(=O)N3CC(c4cccnc4)C3)CC2(C)C)cc1 (stereo unspecified) the screen gave 13.68%.

Cc1nc(N)ncc1C(=O)N1CCCC(CCc2ccc(F)cc2)C1 (stereo unspecified) read 15.4%. Cc1ncc(CNCC(=O)NC2CCCCC2)n1-c1ccccc1 read 7.125%. With Cc1nc(C(C)C)sc1C(C)N(C)C(=O)c1ccc(=O)n(C)c1 (stereo unspecified) the screen gave 3.631%. c1ncc2c(n1)CN(c1ncnc3[nH]ccc13)CC2 gave 21.32%. Cc1noc(C(C)SCc2ccccn2)n1 (stereo unspecified) gave 6.269%.

For CCC(O)CN1CCN(C(=O)c2cccn2Cc2ccccc2)CC1 (stereo unspecified) the result was 1.408%. With Cc1nc(CNC(=O)NC(C)c2ccc3c(c2)OCCO3)cs1 (stereo unspecified) the screen gave 1.044%. CCc1noc(CN(CC)Cc2cc3ccc(F)cc3[nH]c2=O)n1 gave -0.5115%. COc1ccc(NC(=O)NC(C)Cn2cccn2)cn1 (stereo unspecified) read 12.36%. CCn1nc(C)c(S(=O)(=O)N(C)c2ccc(Cl)cn2)c1C gave 8.333%.

For reference, 5 entries once more:

- COCC1CC2(CCN(CC3CC3)CC2)CN1Cc1ccccn1 (stereo unspecified) | 17.66%
- CCN(CC)C(=O)CCNC(=O)Cc1nc(-c2ccco2)oc1C | 7.805%
- COC(=O)c1ccc(OC)c(Cn2cc(Br)cn2)c1 | 1.144%
- COc1ccccc1-c1noc(CCC(=O)NC(C)Cn2cccn2)n1 (stereo unspecified) | 0.9804%
- O=S(=O)(CC1CCCCO1)Nc1cc(F)ccc1-n1cccn1 (stereo unspecified) | 4.57%

From ChEMBL document CHEMBL3988442, “University of Dundee, Small-Polar-MMV Screening Library” (2021).